# Data published in PubChem BioAssay AID1347423 (Functional Genomics Laboratory (NCATS/FGL), 2020).
# Among all 52,000 sequences or so, about 210 (0.4%) were called active.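 Rule for the calls: active = gene whose silencing raises cell survival under the drug, median off-target-corrected z-score across its silencing RNAs 2 or more; inactive = the rest.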 The list shows a part of the results.
# Assay: Resistance to Poly (ADP-Ribose) Polymerase inhibitor: Gene Identification via Genome-wide siRNA Screen
# Details: mouse BRCA2 R2336H ES cells, olaparib, CellTiter-Glo viability; active compounds read high
# Method in brief: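 Genome-wide siRNA screen (3 siRNAs/gene, 20 nM) in mouse ES cells carrying hypomorphic BRCA2 R2336H; olaparib 500 nM added 48 h post-transfection, CellTiter-Glo viability 72 h later. Normalized to plate-median negative control; MAD z-scores, gene median, seed-adjusted.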
row,Sequence,z-score
1,GGACCAAGAGAUUUGCUAUTT against Abcc2,inactive: 0.125
2,GGACAAUGCAGCCUACUACTT against Gnaz,inactive: -0.138
3,CCAAUUACUUGAAUUUAGCTT against Gata5,inactive: 0.483
4,GGAAACUCUUCACCACAAATT against 4931420D14Rik,inactive: -0.704
5,GGAGAUUGACUUCAAGGAGTT against S100a5,inactive: -0.0992
6,CCCACAUUGCUUACCUUUCTT against Zfp523,inactive: -0.0271
7,CCUUCUACUGGCAACCUAUTT against Zfp110,inactive: -1.48
8,GGAAUCCUGGAUUGAGGAATT against Rhod,inactive: -0.926
9,GGAGAAGGGUGUUUCAGCUTT against Usp29,inactive: 0.264
10,CGAAACAUCAAUAAAUGCUTT against Penk1,inactive: 0.294
11,CGUAGUGUUCUGUGUUUAUTT against Mif,inactive: 0.539
12,GGAGGUAGGAAGGAAGAAGTT against 1500003O22Rik,inactive: 0.13
13,GCUUUGUGCCAUCUCUACATT against Tlr13,inactive: -2.31
14,GCACUUUACCCACUGAACCTT against AA881470,inactive: -0.347
15,CCAUGGUCUUGAAUUAUUCTT against Syt4,inactive: 1.93
16,GUCAUGAAUGGGCUACUAATT against Olfr1447,inactive: -0.797
17,GCAAUUGAUUGACUGAGAATT against Calm3,inactive: 0.789
18,GGUGAUGUGGAAUAAAUUGTT against Odf4,inactive: 0.64
19,GGUCUUUUGUUACCUUAGUTT against Sult1b1,inactive: -0.455
20,GCCUAAGAUCUGGACCUAATT against Timm44,inactive: -1.82
21,CCAUCUUACAGAUUACCAATT against 1200007B05Rik,inactive: -0.892
22,GCUAGAAGUAGAGAAUCAGTT against Plekhh2,inactive: 1.28
23,GGGAUGCUUUGUGGCUGUATT against Olfr837,inactive: -2.42
24,GGACCUUUAGCUGGUUUAGTT against A830006N08Rik,inactive: -2.51
25,GUCUUUUUUCUUUUUGACCTT against Olfr168,inactive: -0.448
26,GGGAUGGGCUUCUGAAUAATT against V1rh8,inactive: -2.51

row,Sequence,z-score
1,GGCUUUAGAGACAAUAUCATT against AA407930,inactive: -0.282
2,GCUCGCUAAAGUGAUUAAATT against LOC433384,inactive: 1.02
3,GCAAAGCUUAAAAGUGAAGTT against C730025P13Rik,inactive: 0.151
4,CCUAAGAUAGACUAAAUCGTT against 1700001G17Rik,inactive: 0.0267
5,GGAGCUGGAGAAGUUACUUTT against Amigo3,inactive: 1.11
6,GGGAUGUUCUAUGUAAUAATT against Cog4,inactive: 0.671
7,GGUUUGGAAUCAAAACAAGTT against 5830433M19Rik,inactive: 0.872
8,GGAAGAUUGAAAUAGGCGATT against Mds1,inactive: 1.06
9,GGGCAUCUUGUAUAUCUGGTT against 4732415M23Rik,inactive: -0.395
10,GCACGAUGUACCUGAAUCUTT against Ifitm5,inactive: -0.324
11,GGCACAAGUAACAGGCUCATT against Egfr,inactive: -2.19
12,GCUUCGACAAAAGAAGAUGTT against C130022K22Rik,inactive: -0.485
13,GGAUUGGUUAUCAGGGCUATT against 2510038A11Rik,inactive: -1.93
14,ACACCUGCCUGCAUCUACUTT against Tcp10a,inactive: 1.25
15,GGCUUCAGCAAAGACAAUGTT against Ache,inactive: -0.637
16,GGAAAGACCUAAGCAAUUATT against Btbd5,inactive: -0.251
17,GGGAAGAGUUUCACGCUCATT against Runx3,inactive: 0.761
18,CCUGUUGCUAAUCUCACAATT against Fcgr3,inactive: -0.575
19,GAAGCCUAACCUCACCCUGTT against Ang1,inactive: 0.195
20,GGAUCCAGAGGCUGUUAAATT against Casp9,inactive: -0.629
21,GGUGGUAGAUAUUGUCCAUTT against Olfr420,inactive: -0.254
22,GGUCUAGGUCUGAAGAUCCTT against Stxbp4,inactive: 1.48
23,GGGCUGUGGAAACAAUUUATT against 9430016A21Rik,inactive: 0.534
24,CCUUUGGAAUUUCUAAUACTT against Sil,inactive: 1.33
25,GGAGCAGUCUAUCUUUGGUTT against Dbn1,inactive: -1.07
26,GGACAAUUGAAUACCUAGATT against Hadha,inactive: 1.9

# Random excerpt: 2 entries already listed
row,Sequence,z-score
12,GGAGGUAGGAAGGAAGAAGTT against 1500003O22Rik,inactive: 0.13
19,GAAGCCUAACCUCACCCUGTT against Ang1,inactive: 0.195
